No constants are given. Whether binding was seen depends on the method and setting. In cells and extracts the contact can be indirect. Some results given as binding are weak or reduced against the parent protein; the word gives no strength. For some assays here: Sequences can lack the tags named with a protein.

Amino acid sequences for entries named in this document (tags omitted).
UniProt Q05397: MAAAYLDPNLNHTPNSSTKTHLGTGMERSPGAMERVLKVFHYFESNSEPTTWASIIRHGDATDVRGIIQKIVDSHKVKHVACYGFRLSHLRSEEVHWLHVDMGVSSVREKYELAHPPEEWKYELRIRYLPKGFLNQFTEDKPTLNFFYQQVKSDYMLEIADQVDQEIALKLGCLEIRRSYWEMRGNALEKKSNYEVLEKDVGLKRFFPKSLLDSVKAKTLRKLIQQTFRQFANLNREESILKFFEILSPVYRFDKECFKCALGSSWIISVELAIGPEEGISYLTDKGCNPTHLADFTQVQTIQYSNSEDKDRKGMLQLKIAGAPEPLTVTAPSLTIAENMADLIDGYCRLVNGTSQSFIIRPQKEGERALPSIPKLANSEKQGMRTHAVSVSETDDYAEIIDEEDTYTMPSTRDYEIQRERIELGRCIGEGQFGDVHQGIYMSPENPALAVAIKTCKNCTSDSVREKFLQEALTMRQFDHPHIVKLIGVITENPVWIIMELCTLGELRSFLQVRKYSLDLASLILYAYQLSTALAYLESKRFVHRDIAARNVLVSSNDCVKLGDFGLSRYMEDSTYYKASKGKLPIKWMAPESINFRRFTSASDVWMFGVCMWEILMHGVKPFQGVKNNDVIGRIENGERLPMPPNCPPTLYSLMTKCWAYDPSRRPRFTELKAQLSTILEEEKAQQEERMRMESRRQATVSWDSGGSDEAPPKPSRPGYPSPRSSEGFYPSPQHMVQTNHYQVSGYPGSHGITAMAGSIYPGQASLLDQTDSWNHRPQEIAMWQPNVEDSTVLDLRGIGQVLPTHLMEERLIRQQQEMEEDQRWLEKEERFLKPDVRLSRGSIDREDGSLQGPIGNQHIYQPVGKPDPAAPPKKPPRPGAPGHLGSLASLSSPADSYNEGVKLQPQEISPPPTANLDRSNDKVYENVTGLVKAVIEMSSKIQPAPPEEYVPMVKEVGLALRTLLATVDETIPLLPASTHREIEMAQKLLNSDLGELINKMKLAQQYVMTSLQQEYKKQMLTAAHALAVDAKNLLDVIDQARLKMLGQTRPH

One test has as its target T1, GST-OmpA (E. coli) (UniProt P0A910).
T1 sequence: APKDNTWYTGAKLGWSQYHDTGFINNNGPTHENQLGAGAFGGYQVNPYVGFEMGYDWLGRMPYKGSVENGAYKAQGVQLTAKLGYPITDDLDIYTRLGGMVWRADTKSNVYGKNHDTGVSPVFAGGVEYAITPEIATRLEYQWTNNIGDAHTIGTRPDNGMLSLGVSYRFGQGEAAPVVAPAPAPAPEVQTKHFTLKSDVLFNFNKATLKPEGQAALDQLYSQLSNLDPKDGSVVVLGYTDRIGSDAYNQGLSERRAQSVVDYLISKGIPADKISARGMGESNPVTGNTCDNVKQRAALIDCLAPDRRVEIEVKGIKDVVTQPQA
The experiment in a line: pull-down; GST fusion proteins prebound to Glutathione Sepharose 4B, incubated overnight at 4 °C with HBMECs lysate; binding buffer 20 mM Tris, 50 mM NaCl, 10% glycerol, 1% Nonidet P-40; blot with Caspr1 antibody; only the target purified.

Test [1] addresses focal adhesion kinase (FAK), endogenous in HBMECs (human (endogenous in HBMECs)) (UniProt Q05397). Kind of test: co-IP.

B1: endogenous Caspr1 in HBMECs (receptor, UniProt P78357 20-1384)
chain: WGYYGCDEELVGPLYARSLGASSYYSLLTAPRFARLHGISGWSPRIGDPNPWLQIDLMKKHRIRAVATQGSFNSWDWVTRYMLLYGDRVDSWTPFYQRGHNSTFFGNVNESAVVRHDLHFHFTARYIRIVPLAWNPRGKIGLRLGLYGCPYKADILYFDGDDAISYRFPRGVSRSLWDVFAFSFKTEEKDGLLLHAEGAQGDYVTLELEGAHLLLHMSLGSSPIQPRPGHTTVSAGGVLNDQHWHYVRVDRFGRDVNFTLDGYVQRFILNGDFERLNLDTEMFIGGLVGAARKNLAYRHNFRGCIENVIFNRVNIADLAVRRHSRITFEGKVAFRCLDPVPHPINFGGPHNFVQVPGFPRRGRLAVSFRFRTWDLTGLLLFSRLGDGLGHVELTLSEGQVNVSIAQSGRKKLQFAAGYRLNDGFWHEVNFVAQENHAVISIDDVEGAEVRVSYPLLIRTGTSYFFGGCPKPASRWDCHSNQTAFHGCMELLKVDGQLVNLTLVEGRRLGFYAEVLFDTCGITDRCSPNMCEHDGRCYQSWDDFICYCELTGYKGETCHTPLYKESCEAYRLSGKTSGNFTIDPDGSGPLKPFVVYCDIRENRAWTVVRHDRLWTTRVTGSSMERPFLGAIQYWNASWEEVSALANASQHCEQWIEFSCYNSRLLNTAGGYPYSFWIGRNEEQHFYWGGSQPGIQRCACGLDRSCVDPALYCNCDADQPQWRTDKGLLTFVDHLPVTQVVIGDTNRSTSEAQFFLRPLRCYGDRNSWNTISFHTGAALRFPPIRANHSLDVSFYFRTSAPSGVFLENMGGPYCQWRRPYVRVELNTSRDVVFAFDVGNGDENLTVHSDDFEFNDDEWHLVRAEINVKQARLRVDHRPWVLRPMPLQTYIWMEYDQPLYVGSAELKRRPFVGCLRAMRLNGVTLNLEGRANASEGTSPNCTGHCAHPRLPCFHGGRCVERYSYYTCDCDLTAFDGPYCNHDIGGFFEPGTWMRYNLQSALRSAAREFSHMLSRPVPGYEPGYIPGYDTPGYVPGYHGPGYRLPDYPRPGRPVPGYRGPVYNVTGEEVSFSFSTSSAPAVLLYVSSFVRDYMAVLIKDDGTLQLRYQLGTSPYVYQLTTRPVTDGQPHSINITRVYRNLFIQVDYFPLTEQKFSLLVDSQLDSPKALYLGRVMETGVIDPEIQRYNTPGFSGCLSGVRFNNVAPLKTHFRTPRPMTAELAEALRVQGELSESNCGAMPRLVSEVPPELDPWYLPPDFPYYHDEGWVAILLGFLVAFLLLGLVGMLVLFYLQNHRYKGSYHTNEPKAAHEYHPGSKPPLPTSGPAQVPTPTAAPNQAPASAPAPAPTPAPAPGPRDQNLPQILEESRSE
Consider B1, for which the binding entry with GST-OmpA (E. coli) is reported as “no binding”; in test [1] it was “binds”.

These data come from publication PMC5997682.
